Screening data, single-dose tests

Measurements from “University of Dundee, Small-Polar-MMV Screening Library” (2021), ChEMBL document CHEMBL3988442.

T. brucei: 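Whole-parasite assay of Trypanosoma brucei over 72 hours; the read-out is not stated. Tested at 30 µM. Higher reads as stronger inhibition (inferred: compounds with an IC50 in retests scored well above the rest). Values scatter widely below zero; nearly all retest evidence comes from the higher of the two concentrations used. Size under these conditions: about 64,000 compounds, about 940 of them at 50% or above in at least one test.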
Toxoplasma: 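Assay of Toxoplasma gondii numbers, read through their beta-galactosidase reporter with a colour substrate. Tested at 10 µM. Higher reads as fewer parasites (inferred from which compounds were picked for retests). Size under these conditions: about 67,000 compounds, about 260 of them at 50% or above in at least one test.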
Leishmania in macrophages: 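Cell assay of Leishmania donovani living inside macrophages; the read-out is not stated. Tested at 30 µM. Direction is inferred from retests: higher values go with stronger inhibition. Size under these conditions: about 69,000 compounds, about 1,000 of them at 50% or above in at least one test.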

Results are given as percent effect. The controls that fix the scale are not given in the record; negative values are as filed. The compounds are a random part of those screened. Two or more numbers in one place are separate tests of the same structure; such repeats can differ widely. A dash means the value is not listed here; it may have been measured.

| # | structure | T. brucei | Toxoplasma | Leishmania in macrophages |
|---|---|---|---|---|
| 1 | `O=C(c1ccc2[nH]cnc2c1)N1CCC(Oc2cccnc2)CC1` | -21.16 | -2.817 | 13.25 |
| 2 | `Cc1cccc(C(=O)NCCS(=O)(=O)Cc2ccccc2)c1` | -31.58 | 1.438 | 6.77 |
| 3 | `O=C(O)C(F)(F)F.[H][C@@]12CCN(Cc3cc(C)on3)C[C@]1([H])O[C@@H](C(=O)N1CCC(C)CC1)C2` | - | 2.743 | 24.56 |
| 4 | `O=C1CC(N2CCN(c3ccc(F)cc3)CC2)C(=O)N1Cc1cccs1` (centres undefined) | -24.66 | -0.5066 | 4.562 |
| 5 | `CCn1cc(NC(=O)N2CCN(CCSc3ccccc3)CC2)cn1` | -5.759 | 29.89 | 46.9 |
| 6 | `CC(NC(=O)c1ccsc1)c1ccc2c(c1)NC(=O)CO2` (centres undefined) | 11.75 | -23.04 | 35.24 |
| 7 | `O=C(O)C(F)(F)F.O=C(c1cccnc1)N1CCCC2(COCCN(c3ccccc3)C2)C1` (centres undefined) | -43.99 | -19.91 | 2.354 |
| 8 | `COc1cccc(N2CCC(CNC(=O)CN3CSCC3=O)C2)c1` (centres undefined) | -17.63 | 5.858 | 12.12 |
| 9 | `O=C(O)C(F)(F)F.[H][C@@]12CCN(c3cccnc3)C[C@]1([H])CN(C(=O)c1ccn(C)n1)C2` | -45.64 | -3.894 | 45.84 |
| 10 | `COc1cc2cc(C(=O)NCCC(=O)O)n(C)c2c(OC)c1OC` | -28.42 | 74.68 | -37.16 |
| 11 | `CCOCc1ccc(NC(=O)N2CCCC2c2nncn2C)cc1` (centres undefined) | -14.2 | -19.21 | -9.181 |
| 12 | `CCOc1ccc2nc(CN3CCC(CN)C3)ccc2c1` (centres undefined) | -13.72 | 0.8051 | -11.01 |
| 13 | `CCC1CCCN(C(=O)Cc2csc(-c3ncccn3)n2)C1` (centres undefined) | -8.702 | 1.694 | -1.044 |
| 14 | `CCSCc1ccnc(NC(=O)C2CCCO2)c1` (centres undefined) | -27.88 | 4.656 | 27.15 |
| 15 | `Cc1cccc(CN2CCN(c3ncnc4[nH]ccc34)CC2CCO)n1` (centres undefined) | 10.74 | 4.648 | 8.985 |
| 16 | `Cc1cc(C(N)=O)nc(C2(C)CCCN2Cc2cnn(C)c2C)n1` (centres undefined) | -28.19 | 20.46 | 2.422 & 18.18 |
| 17 | `CN(Cc1nnc(C2CC2)n1C)C1CCN(CCc2cccs2)C1` (centres undefined) | 5.694 | 9.262 | 29.27 |
| 18 | `[H][C@@]12COC[C@]1([H])[C@@H](OCC1CCN(C)CC1)CN2Cc1ccc(C)o1` | -12.97 | 19.77 | 37.97 |
| 19 | `Cc1ccc2nc(CN3CCN(C4CCCCC4)C(=O)C3)cc(O)c2c1` | -28.11 | 5.031 | 11.12 |
| 20 | `NC(=O)c1cn2cc(-c3ccccc3Cl)n(CC3CC3)c(=O)c2n1` | 10.46 | -38.43 | 15.98 |
| 21 | `CN1CCOC(CNCC(=O)NCCc2ccc(F)cc2)C1` (centres undefined) | -26.88 | 1.951 | -9.53 |
| 22 | `O=S(=O)(NCc1ccccc1Cn1cncn1)N1CCCCC1` | 8.97 | -12.2 | 10.06 |
| 23 | `CCc1nc(C2CCCN(C(=O)C3=NN(CC)C(=O)CC3)C2)no1` (centres undefined) | -37.39 | 5.593 | 19.83 |
| 24 | `Cc1ccc(C(=O)N2CCCC2c2nnc3n2CCCCC3)o1` (centres undefined) | -4.711 | -0.9305 | 0.2094 |
| 25 | `O=C(O)C(F)(F)F.[H][C@]12CC[C@@]3(N=C(C)N(C)C3=O)[C@@]1([H])CN(CC(C)C)C2` | - | 3.579 | 33.89 |
| 26 | `Cc1cnc(CNCc2cnc(-c3ccccc3C)s2)cn1` | -26.38 | 2.296 | 3.613 |
| 27 | `NC(=O)c1ccccc1Oc1cccc(C2CCCNC2)n1` (centres undefined) | - | 10.34 | 9.072 |
| 28 | `CCOc1cc(C)c(-c2cc(N)[nH]n2)cc1OCC` | -2.073 | 9.738 | -28.15 |
| 29 | `O=C(CN(Cc1ccco1)C1CC1)Nc1ccc(Br)cn1` | -7.364 | -15.82 | 20.31 |
| 30 | `CN(C)c1cc(C(=O)N2CCCN(c3cccnn3)CC2)ccn1` | 2.429 | -14.95 | 13.02 |
| 31 | `CC(C)N(CCCNC(=O)C1CC1)S(C)(=O)=O` | 8.424 | 5.603 | -9.476 |
| 32 | `Cl.Clc1cccnc1OC1CCNCC1` | -27.45 | -16.81 | 14.95 |
| 33 | `CCOCCNS(=O)(=O)c1cc(C)c2nc(O)cc(C)c2c1` | -71.34 | 24.32 | -62.99 |
| 34 | `CCn1nccc1CNC(=O)Cn1cc2c(n1)c(C)nn2C(C)C` | -3.87 | -11.77 | -11.18 |
| 35 | `Cc1ncsc1-c1nnc(C2CCN(Cc3ccccc3)CC2)o1` | -11.24 | 17.44 | -5.497 & 7.963 |
| 36 | `Cc1noc(-c2ccnc(Oc3ccccc3CN3CCCCC3)c2)n1` | 2.98 | -37.34 | -0.9403 |
| 37 | `O=C(c1cc(-n2cccn2)ccn1)N(CC1CCC1)CC(F)(F)F` | -4.77 | -0.5508 | 17.3 |
| 38 | `Cc1cnn(CCNCC(=O)NC(c2ccccc2)c2ccccc2)c1` | -8.624 | -1.396 | 25.69 |
| 39 | `Cc1cc(C(F)(F)F)cc(N2C[C@@H](CN(C)CCO)[C@@H](CO)C2)n1` | -15.61 | -15.59 | 33.45 |
| 40 | `Cn1cc(C2CC3(CCN(C(=O)c4ccsc4)CC3)NC2=O)cn1` (centres undefined) | -37.86 | 19.98 | 26.38 & 7.965 |
| 41 | `CN(Cc1ccco1)C1CCC12CCN(C(=O)c1ccnnc1)CC2.O=C(O)C(F)(F)F` (centres undefined) | -13.6 | 0.7684 | -1.992 |
| 42 | `Cc1ccc(S(=O)(=O)CCC(=O)NCc2nnc3n2CCC3)cc1` | -4.47 | 4.835 | 23.03 |
| 43 | `COC(=O)C(NC(=O)COC1CCCC1)c1cc(F)ccc1F` (centres undefined) | 26.44 | 3.176 | 54.06 |
| 44 | `Cc1nnc2ccc(C(=O)N3CCSC(C)(C)C3)cn12` | -43.34 | -1.116 | -13.79 |
| 45 | `COc1ccc(C2CC(=O)Nc3c2cnn3C2CCCC2)cc1` (centres undefined) | 41.04 | 0.3064 | 27.66 |
| 46 | `Oc1nc(N2CCOCC2)nc2c1CCN(Cc1cccc(F)c1)CC2` | -14.28 | 4.713 | 10.47 & 18.81 |

Once more, the final 3:

structure	T. brucei	Toxoplasma	Leishmania in macrophages
Cc1nnc2ccc(C(=O)N3CCSC(C)(C)C3)cn12	-43.34	-1.116	-13.79
COc1ccc(C2CC(=O)Nc3c2cnn3C2CCCC2)cc1 (centres undefined)	41.04	0.3064	27.66
Oc1nc(N2CCOCC2)nc2c1CCN(Cc1cccc(F)c1)CC2	-14.28	4.713	10.47 & 18.81